PubChem BioAssay AID743121 | NCATS, 2013
Assay: 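Genes whose silencing strengthens cell killing by camptothecin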 (primary screen). Cell system: MDA-MB-231 cells, a human breast cancer line. Reagents: single siRNA against human genes, 20 nM siRNA (0.8 pmol per well). Timing: 120 h (drug added 48 h after transfection, read 72 h later). Treatment: camptothecin 20 nM (about EC30) for 72 h; vehicle 0.1% DMSO in parallel plates. Measured: 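CellTiter-Glo ATP signal, scaled to control siRNA as percent viability; sensitisation given as log2 of untreated divided by camptothecin-treated viability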. Reading the numbers: log2 vehicle/camptothecin viability: higher = stronger sensitisation to camptothecin. Rule for the call: 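Each gene scored by redundant siRNA activity (RSA) over its individual siRNA ratios; a gene is called active at p < 0.001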.
This is a random part of about 26,000 deposited reagents. Over the whole deposit, 167 (0.63%) are marked active. 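Calls are per gene from RSA p-values that are not deposited; an individual active-marked siRNA can sensitise only weakly.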 A number with no mark means an inactive call. The numbers tell different reagents against one gene apart. Further read-outs or replicates are left out here. Reagent sequences are not shown.

How did the screen score SRPK1 (SRSF protein kinase 1) #1?
log2 vehicle/camptothecin viability: 0.0721

Which result is listed for SRPK1 (SRSF protein kinase 1) #2?
log2 vehicle/camptothecin viability: 0.325

With SRPK1 (SRSF protein kinase 1) #3, how do the results read?
log2 vehicle/camptothecin viability: 0.00476

With SRPK1 (SRSF protein kinase 1) #4, how do the results read?
log2 vehicle/camptothecin viability: 0.112

For LAMTOR3 (late endosomal/lysosomal adaptor, MAPK and MTOR activator 3) #1, how do the results read?
log2 vehicle/camptothecin viability: -0.411

For LAMTOR3 (late endosomal/lysosomal adaptor, MAPK and MTOR activator 3) #2, how do the results read?
log2 vehicle/camptothecin viability: -0.454

Which result is listed for LAMTOR3 (late endosomal/lysosomal adaptor, MAPK and MTOR activator 3) #3?
log2 vehicle/camptothecin viability: -0.19

With LAMTOR3 (late endosomal/lysosomal adaptor, MAPK and MTOR activator 3) #4, what does the deposit list?
log2 vehicle/camptothecin viability: -0.204

As entered above.
Result for SRPK1 (SRSF protein kinase 1) #3 under “log2 vehicle/camptothecin viability”: 0.00476
Under “log2 vehicle/camptothecin viability”, SRPK1 (SRSF protein kinase 1) #2 is entered as 0.325

The list goes on:
With CYP2C18 (cytochrome P450 family 2 subfamily C member 18) #1, what was measured?
log2 vehicle/camptothecin viability: -0.307

How did the screen score CYP2C18 (cytochrome P450 family 2 subfamily C member 18) #2?
log2 vehicle/camptothecin viability: -0.145

For CYP2C18 (cytochrome P450 family 2 subfamily C member 18) #3, how do the results read?
log2 vehicle/camptothecin viability: -0.178

With CYP2C18 (cytochrome P450 family 2 subfamily C member 18) #4, how do the results read?
log2 vehicle/camptothecin viability: -0.394

How did the screen score RBAK (RB associated KRAB zinc finger) #1?
log2 vehicle/camptothecin viability: -0.276

For RBAK (RB associated KRAB zinc finger) #2, what was measured?
log2 vehicle/camptothecin viability: 0.91

Which result is listed for RBAK (RB associated KRAB zinc finger) #3?
log2 vehicle/camptothecin viability: 0.577

What is on record for RBAK (RB associated KRAB zinc finger) #4?
log2 vehicle/camptothecin viability: -0.0983
